In the supplement of paper PMC10849652:
Some of the results follow.

Chains of the proteins cited; added tags and fusions are not shown. Lines headed by an entry give the natural chain unless they say otherwise; changes in a name come on top.
UniProt Q96I99: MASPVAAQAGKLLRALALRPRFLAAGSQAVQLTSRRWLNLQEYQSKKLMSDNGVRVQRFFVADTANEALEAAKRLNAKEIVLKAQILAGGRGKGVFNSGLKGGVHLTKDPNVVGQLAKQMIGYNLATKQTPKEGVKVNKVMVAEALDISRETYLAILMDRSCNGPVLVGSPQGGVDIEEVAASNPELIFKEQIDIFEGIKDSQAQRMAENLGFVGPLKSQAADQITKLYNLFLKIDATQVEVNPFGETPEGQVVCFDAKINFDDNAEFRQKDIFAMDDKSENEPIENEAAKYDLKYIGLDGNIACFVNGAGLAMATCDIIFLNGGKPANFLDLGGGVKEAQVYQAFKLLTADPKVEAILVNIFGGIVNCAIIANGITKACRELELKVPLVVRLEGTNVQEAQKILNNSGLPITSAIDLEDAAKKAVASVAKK
UniProt P17542, whole entry, looked up: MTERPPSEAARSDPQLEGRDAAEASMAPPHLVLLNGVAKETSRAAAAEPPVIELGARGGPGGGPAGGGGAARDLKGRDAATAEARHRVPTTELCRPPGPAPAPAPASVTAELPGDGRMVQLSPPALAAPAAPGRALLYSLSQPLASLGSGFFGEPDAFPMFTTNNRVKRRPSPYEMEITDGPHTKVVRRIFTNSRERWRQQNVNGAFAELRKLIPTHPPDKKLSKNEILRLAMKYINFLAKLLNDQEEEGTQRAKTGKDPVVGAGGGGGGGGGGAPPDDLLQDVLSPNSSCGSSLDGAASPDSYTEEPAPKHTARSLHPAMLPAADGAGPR
UniProt Q15527: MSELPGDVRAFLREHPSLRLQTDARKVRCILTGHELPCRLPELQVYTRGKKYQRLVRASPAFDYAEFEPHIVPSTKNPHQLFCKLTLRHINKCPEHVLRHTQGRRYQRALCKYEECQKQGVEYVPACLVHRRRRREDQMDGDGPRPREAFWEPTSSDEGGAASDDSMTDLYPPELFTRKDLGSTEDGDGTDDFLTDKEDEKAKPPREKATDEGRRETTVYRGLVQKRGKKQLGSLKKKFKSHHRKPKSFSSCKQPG
UniProt O00186: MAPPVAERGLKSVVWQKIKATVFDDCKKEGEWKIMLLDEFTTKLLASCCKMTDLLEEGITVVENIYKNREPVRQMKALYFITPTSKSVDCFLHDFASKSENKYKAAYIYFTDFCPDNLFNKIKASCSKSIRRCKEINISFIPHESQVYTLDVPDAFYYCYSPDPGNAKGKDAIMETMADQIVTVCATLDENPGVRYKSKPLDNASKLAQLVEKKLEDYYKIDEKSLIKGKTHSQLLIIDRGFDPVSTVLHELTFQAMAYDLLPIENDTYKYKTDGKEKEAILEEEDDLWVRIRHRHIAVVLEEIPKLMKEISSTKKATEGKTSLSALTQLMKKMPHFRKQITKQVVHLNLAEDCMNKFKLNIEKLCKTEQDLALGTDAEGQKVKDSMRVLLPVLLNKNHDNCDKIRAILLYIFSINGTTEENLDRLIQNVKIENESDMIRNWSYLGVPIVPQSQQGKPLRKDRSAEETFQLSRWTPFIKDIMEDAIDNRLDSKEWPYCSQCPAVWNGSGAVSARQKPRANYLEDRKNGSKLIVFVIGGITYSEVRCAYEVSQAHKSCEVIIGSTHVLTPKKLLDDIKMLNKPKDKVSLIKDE
UniProt P37802: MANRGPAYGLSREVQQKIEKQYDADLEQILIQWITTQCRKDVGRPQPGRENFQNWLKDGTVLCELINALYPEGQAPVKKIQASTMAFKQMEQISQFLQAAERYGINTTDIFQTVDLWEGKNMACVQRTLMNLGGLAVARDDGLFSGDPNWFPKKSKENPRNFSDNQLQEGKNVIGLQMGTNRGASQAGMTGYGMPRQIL
UniProt Q9UJZ1: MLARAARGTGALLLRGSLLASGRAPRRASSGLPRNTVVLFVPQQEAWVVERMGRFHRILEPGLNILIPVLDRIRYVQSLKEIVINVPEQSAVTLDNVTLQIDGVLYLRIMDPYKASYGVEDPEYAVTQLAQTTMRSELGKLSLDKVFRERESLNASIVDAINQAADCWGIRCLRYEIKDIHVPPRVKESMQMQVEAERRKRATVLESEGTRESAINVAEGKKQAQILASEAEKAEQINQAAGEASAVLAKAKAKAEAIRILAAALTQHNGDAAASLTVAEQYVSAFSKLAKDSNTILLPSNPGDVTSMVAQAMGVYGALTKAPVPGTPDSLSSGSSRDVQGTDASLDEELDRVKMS
UniProt Q7Z422: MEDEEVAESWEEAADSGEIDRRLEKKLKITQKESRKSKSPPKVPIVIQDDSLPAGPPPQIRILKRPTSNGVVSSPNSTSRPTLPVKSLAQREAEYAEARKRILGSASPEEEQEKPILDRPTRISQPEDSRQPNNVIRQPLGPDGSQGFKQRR
UniProt Q96A49: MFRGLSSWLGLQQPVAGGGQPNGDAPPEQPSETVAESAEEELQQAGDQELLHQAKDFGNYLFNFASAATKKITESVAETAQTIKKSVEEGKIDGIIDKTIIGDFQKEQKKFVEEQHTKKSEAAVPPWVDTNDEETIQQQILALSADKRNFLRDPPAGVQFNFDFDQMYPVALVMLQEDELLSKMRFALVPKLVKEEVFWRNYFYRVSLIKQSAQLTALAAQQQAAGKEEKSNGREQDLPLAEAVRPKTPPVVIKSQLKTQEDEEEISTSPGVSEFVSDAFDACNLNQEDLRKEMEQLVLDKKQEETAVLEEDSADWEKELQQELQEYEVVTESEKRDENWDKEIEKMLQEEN
UniProt P16949: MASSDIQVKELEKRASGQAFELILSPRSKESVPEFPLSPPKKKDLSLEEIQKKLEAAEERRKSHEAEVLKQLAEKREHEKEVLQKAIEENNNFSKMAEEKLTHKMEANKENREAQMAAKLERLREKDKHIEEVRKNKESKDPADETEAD
UniProt P46977: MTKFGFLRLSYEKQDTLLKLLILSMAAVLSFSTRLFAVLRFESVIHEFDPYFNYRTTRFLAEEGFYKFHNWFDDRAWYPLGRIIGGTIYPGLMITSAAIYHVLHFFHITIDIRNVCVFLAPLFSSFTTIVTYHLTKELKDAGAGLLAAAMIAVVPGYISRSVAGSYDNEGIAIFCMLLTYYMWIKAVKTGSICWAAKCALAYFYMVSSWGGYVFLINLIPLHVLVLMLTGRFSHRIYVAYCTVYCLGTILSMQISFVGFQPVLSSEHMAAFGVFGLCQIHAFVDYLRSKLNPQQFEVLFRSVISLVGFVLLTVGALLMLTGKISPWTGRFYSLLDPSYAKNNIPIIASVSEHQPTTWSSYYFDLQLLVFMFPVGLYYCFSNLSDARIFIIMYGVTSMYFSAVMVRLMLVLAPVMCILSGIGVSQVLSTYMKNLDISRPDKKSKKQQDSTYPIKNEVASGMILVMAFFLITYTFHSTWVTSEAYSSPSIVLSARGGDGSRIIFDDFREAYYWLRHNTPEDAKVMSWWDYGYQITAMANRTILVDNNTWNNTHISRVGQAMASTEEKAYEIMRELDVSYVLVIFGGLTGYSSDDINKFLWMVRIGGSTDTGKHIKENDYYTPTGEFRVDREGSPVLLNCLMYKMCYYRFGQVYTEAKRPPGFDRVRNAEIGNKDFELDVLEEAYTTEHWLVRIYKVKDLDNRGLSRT
UniProt Q13033: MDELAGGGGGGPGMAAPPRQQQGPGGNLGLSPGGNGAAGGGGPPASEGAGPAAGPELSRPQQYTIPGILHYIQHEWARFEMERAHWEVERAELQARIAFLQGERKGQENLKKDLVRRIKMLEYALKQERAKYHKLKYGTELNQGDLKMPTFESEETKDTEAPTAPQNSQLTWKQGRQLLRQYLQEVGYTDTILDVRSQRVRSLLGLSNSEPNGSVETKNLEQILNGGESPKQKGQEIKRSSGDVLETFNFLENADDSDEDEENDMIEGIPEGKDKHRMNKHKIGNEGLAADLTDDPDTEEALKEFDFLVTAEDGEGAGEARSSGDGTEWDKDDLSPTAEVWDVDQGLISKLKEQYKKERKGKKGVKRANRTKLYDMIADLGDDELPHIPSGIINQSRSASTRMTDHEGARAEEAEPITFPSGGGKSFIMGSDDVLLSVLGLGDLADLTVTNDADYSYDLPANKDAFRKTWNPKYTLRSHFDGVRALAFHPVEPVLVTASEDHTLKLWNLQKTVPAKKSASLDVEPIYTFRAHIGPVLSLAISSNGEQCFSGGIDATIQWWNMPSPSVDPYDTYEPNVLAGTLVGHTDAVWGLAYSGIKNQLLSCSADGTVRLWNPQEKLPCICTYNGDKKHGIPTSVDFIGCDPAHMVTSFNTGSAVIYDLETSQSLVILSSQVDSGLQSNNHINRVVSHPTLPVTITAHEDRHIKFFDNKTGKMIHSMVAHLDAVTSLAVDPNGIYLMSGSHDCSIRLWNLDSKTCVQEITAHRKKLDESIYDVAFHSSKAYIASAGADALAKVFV
UniProt P27105: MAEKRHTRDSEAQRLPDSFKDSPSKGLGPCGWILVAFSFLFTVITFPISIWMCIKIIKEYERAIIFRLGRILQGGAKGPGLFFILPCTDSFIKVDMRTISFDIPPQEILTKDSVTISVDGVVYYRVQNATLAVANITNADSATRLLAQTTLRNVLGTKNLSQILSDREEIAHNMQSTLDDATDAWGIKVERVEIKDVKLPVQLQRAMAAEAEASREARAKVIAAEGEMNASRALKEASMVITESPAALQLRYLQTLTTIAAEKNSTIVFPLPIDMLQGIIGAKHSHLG
UniProt Q9Y2Z0: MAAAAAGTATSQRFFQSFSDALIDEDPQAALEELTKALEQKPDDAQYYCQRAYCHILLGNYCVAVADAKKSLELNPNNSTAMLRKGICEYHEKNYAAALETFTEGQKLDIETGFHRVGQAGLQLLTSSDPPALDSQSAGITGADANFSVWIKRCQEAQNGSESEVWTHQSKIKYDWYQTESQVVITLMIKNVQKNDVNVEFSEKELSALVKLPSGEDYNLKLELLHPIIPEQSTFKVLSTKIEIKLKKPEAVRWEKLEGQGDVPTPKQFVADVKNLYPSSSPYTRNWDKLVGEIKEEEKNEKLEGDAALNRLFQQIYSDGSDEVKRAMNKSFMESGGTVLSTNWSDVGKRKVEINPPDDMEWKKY
UniProt Q13148, whole entry, looked up: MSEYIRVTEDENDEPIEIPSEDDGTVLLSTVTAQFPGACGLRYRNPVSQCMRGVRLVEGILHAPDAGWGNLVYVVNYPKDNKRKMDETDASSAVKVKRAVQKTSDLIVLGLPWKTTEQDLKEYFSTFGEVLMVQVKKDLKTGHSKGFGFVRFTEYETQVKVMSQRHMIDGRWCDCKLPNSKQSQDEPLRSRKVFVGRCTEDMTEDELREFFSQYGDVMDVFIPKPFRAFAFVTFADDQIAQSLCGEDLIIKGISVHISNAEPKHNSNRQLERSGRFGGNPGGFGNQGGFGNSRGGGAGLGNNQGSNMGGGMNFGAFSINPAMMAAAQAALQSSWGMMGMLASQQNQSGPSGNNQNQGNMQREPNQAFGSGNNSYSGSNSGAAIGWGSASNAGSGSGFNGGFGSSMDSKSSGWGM
UniProt P51687: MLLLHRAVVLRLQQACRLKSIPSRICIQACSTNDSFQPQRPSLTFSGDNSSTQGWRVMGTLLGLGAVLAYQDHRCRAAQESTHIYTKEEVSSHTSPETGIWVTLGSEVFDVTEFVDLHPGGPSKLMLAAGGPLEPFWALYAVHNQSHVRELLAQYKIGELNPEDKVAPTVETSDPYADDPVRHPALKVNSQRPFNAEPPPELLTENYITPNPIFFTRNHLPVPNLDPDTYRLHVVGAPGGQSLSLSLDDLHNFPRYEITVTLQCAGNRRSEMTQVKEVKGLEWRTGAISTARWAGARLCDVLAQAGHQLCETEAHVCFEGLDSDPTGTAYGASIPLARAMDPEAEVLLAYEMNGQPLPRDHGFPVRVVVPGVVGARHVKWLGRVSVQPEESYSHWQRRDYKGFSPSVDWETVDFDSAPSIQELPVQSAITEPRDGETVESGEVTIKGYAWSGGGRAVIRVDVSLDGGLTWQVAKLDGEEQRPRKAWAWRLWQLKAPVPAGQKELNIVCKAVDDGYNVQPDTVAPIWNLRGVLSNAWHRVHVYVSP
UniProt O60506: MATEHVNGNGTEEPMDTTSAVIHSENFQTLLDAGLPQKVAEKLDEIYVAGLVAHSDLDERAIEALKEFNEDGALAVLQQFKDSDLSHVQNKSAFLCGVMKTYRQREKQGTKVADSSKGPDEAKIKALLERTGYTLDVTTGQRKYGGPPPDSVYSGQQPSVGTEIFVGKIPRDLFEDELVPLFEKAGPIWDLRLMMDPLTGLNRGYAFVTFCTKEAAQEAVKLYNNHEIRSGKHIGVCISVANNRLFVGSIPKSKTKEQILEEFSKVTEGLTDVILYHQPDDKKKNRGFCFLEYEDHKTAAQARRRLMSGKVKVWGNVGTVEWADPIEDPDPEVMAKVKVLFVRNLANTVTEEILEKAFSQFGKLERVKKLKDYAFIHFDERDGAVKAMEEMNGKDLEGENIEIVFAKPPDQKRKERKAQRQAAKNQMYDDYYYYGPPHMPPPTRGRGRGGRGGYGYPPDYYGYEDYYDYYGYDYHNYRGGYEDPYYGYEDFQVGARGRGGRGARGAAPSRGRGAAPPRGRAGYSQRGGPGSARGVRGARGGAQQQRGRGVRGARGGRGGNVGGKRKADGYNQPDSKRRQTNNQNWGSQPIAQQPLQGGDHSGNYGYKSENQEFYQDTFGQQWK

What was measured:
Test in all cases: log2 fold change, soluble protein after heating vs DMSO (PISA); higher = thermal stabilisation; K562 cells, 10 uM, 30 min; active = over 0.2 and 3.5 SD of the protein, either way, in both replicates (recomputed)
[1] = compound: NC(=O)Nc1cc(-c2cccc(F)c2)sc1C(=O)N[C@H]1CCCNC1
In short: (§1)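 K562 cells (2×10^6 cells/mL) were treated with 10 μM compound for 30 min, and aliquots were heated for 3 min over 48°C-58°C. Pooled aliquots were extracted in PBS with 0.5% NP-40 at 4°C, and the supernatant after 21,000xg for 90 min was measured by TMTpro 16plex LC-MS/MS with channel sums equalised. Reported thermal stability, relative to control samples and from duplicates, is a log2 fold change.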

[2] = compound: NC(=O)c1cnc(N[C@@H]2CCCC[C@@H]2N)nc1Nc1cccc(-n2nccn2)c1
In short: as §1

[3] = compound: NC1(c2ccc(-c3nc4ccn5c(=O)[nH]nc5c4cc3-c3ccccc3)cc2)CCC1
In short: as §1

[4] = compound: NCC(=O)Nc1ccc(-n2nc(C(F)(F)F)cc2-c2ccc3c(ccc4ccccc43)c2)cc1
In short: as §1

[5] = compound: Nc1ccccc1NC(=O)c1ccc(CNC(=O)OCc2cccnc2)cc1 [entinostat]
In short: as §1

[6] = compound: O=C(CCCCCCC(=O)Nc1ccccc1)NO [vorinostat]
In short: as §1

[7] = compound: O=C(CCCCCCNC(=O)c1cnc(N(c2ccccc2)c2ccccc2Cl)nc1)NO [citarinostat]
In short: as §1

[8] = compound: O=C(O)c1ccc2c(c1)nc(Nc1cccc(Cl)c1)c1ccncc12 [silmitasertib]
In short: as §1

[9] = compound: O=C1NC(=O)C(c2cnc3ccccn23)=C1c1cn2c3c(cc(F)cc13)CN(C(=O)N1CCCCC1)CC2
In short: as §1

[10] = compound: c1cc(OCCN2CCCCC2)cc(-c2n[nH]c3ccc(-c4nnc[nH]4)cc23)c1
In short: as §1

Measured: log2 fold change

SUCLG2 (UniProt Q96I99)
inactive: [1] 0.004 | [2] -0.045 | [3] -0.053 | [4] -0.028 | [5] -0.005 | [6] 0.036 | [7] 0.042 | [8] -0.031 | [9] -0.026 | [10] -0.032

TAL1 (UniProt P17542)
inactive: [1] 0.035 | [2] 0.008 | [3] -0.039 | [4] -0.048 | [5] -0.044 | [6] -0.028 | [7] 0.031 | [8] 0.009 | [9] -0.072 | [10] -0.032

SYNJ2BP-COX16, A0A087WYV9
inactive: [1] -0.016 | [2] -0.064 | [3] 0.011 | [4] -0.004 | [5] -0.076 | [6] -0.004 | [7] -0.031 | [8] 0.04 | [9] 0.012 | [10] 0.011

TAF7 (UniProt Q15545)
inactive: [1] -0.02 | [2] -0.049 | [3] 0.004 | [4] 0.062 | [5] 0.003 | [6] -0.023 | [7] -0.003 | [8] -0.037 | [9] -0.081 | [10] -0.052

SURF2 (UniProt Q15527)
inactive: [1] 0.019 | [2] 0.076 | [3] 0.033 | [4] 0.088 | [5] -0.012 | [6] -0.009 | [7] 0.06 | [8] 0.079 | [9] -0.004 | [10] -0.018

TARBP2 (UniProt Q15633)
inactive: [1] 0.021 | [2] -0.047 | [3] 0.011 | [4] -0.033 | [5] -0.241 | [6] -0.14 | [7] -0.079 | [8] 0.113 | [9] 0.108 | [10] -0.17

STXBP3 (UniProt O00186)
inactive: [1] -0.061 | [2] -0.045 | [3] -0.101 | [4] -0.077 | [5] 0.058 | [6] 0.106 | [7] 0.024 | [8] 0.004 | [9] 0.082 | [10] -0.062

SYMPK (UniProt Q92797)
inactive: [1] -0.018 | [2] 0.012 | [3] -0.287 | [4] -0.08 | [5] 0.025 | [6] 0.11 | [7] 0.051 | [8] 0.167 | [9] 0.033 | [10] -0.037

SULT1A3 isoform 3 (UniProt P0DMM9)
inactive: [1] -0.097 | [2] -0.01 | [3] -0.155 | [4] 0.035 | [5] 0.117 | [6] 0.043 | [7] 0.117 | [8] 0.081 | [9] -0.061 | [10] 0.14

TAGLN2 isoform 2 (UniProt P37802)
inactive: [1] -0.025 | [2] 0.008 | [3] -0.001 | [4] 0.016 | [5] 0.058 | [6] 0.026 | [7] 0.06 | [8] -0.036 | [9] -0.035 | [10] -0.008

SYNRG (UniProt Q9UMZ2)
inactive: [1] -0.022 | [2] -0.055 | [3] -0.054 | [4] -0.023 | [5] 0.001 | [6] 0.085 | [7] 0.045 | [8] 0.101 | [9] 0.003 | [10] -0.023

TAX1BP1 (UniProt Q86VP1)
inactive: [1] 0.028 | [2] -0.062 | [3] -0.202 | [4] -0.102 | [5] -0.013 | [6] -0.183 | [7] 0.061 | [8] 0.042 | [9] -0.011 | [10] -0.081

STOML2 (UniProt Q9UJZ1)
inactive: [1] 0.052 | [2] 0 | [3] -0.009 | [4] 0.031 | [5] -0.008 | [6] -0.055 | [7] 0.013 | [8] -0.013 | [9] -0.027 | [10] 0.107

SZRD1 (UniProt Q7Z422)
inactive: [1] -0.056 | [2] -0.006 | [3] 0.042 | [4] -0.055 | [5] -0.022 | [6] -0.002 | [7] -0.016 | [8] 0.03 | [9] -0.01 | [10] 0.015

SYAP1 (UniProt Q96A49)
inactive: [1] 0.019 | [2] -0.077 | [3] -0.121 | [4] 0.024 | [5] 0.019 | [6] 0.028 | [7] 0.06 | [8] 0.025 | [9] -0.015 | [10] 0.024

STMN1 (UniProt P16949)
inactive: [1] 0.029 | [2] 0.011 | [3] 0.042 | [4] 0.022 | [5] -0.027 | [6] 0.032 | [7] -0.058 | [8] -0.078 | [9] -0.007 | [10] 0.052

SUPT6H (UniProt Q7KZ85)
inactive: [1] -0.176 | [2] -0.066 | [3] -0.127 | [4] -0.24 | [5] 0.129 | [6] 0.122 | [7] -0.169 | [8] -0.07 | [9] -0.189 | [10] -0.081

STT3A (UniProt P46977)
inactive: [1] -0.004 | [2] -0.04 | [3] -0.045 | [4] -0.029 | [5] 0.019 | [6] -0.022 | [7] 0.018 | [8] 0.027 | [9] 0.002 | [10] -0.072

STRN3 (UniProt Q13033)
inactive: [1] -0.014 | [2] -0.052 | [3] 0.003 | [4] 0.014 | [5] 0.014 | [6] 0.025 | [7] -0.033 | [8] -0.003 | [9] -0.068 | [10] -0.025

TANGO2 isoform 4 (UniProt Q6ICL3)
inactive: [1] -0.06 | [2] -0.1 | [3] -0.115 | [4] -0.022 | [5] -0.02 | [6] 0.022 | [7] 0.067 | [8] -0.027 | [9] -0.071 | [10] -0.004

STOM (UniProt P27105)
inactive: [1] -0.104 | [2] -0.043 | [3] -0.069 | [4] -0.019 | [5] -0.003 | [6] 0.025 | [7] 0.007 | [8] 0.067 | [9] 0.042 | [10] -0.091

TATDN1 (UniProt Q6P1N9)
inactive: [1] -0.039 | [2] 0.045 | [3] -0.016 | [4] 0.001 | [5] -0.006 | [6] 0.002 | [7] 0.005 | [8] 0.033 | [9] 0.02 | [10] 0.01

STUB1 (UniProt Q9UNE7)
inactive: [1] 0.003 | [2] -0.177 | [3] 0.138 | [4] -0.01 | [5] 0.028 | [6] 0.05 | [7] -0.033 | [8] 0.233 | [9] 0.18 | [10] -0.134

SUGT1 (UniProt Q9Y2Z0)
inactive: [1] -0.02 | [2] -0.039 | [3] -0.093 | [4] -0.009 | [5] 0.009 | [6] 0.021 | [7] 0.034 | [8] 0.017 | [9] -0.036 | [10] 0.008

TARDBP (UniProt Q13148)
inactive: [1] 0.043 | [2] -0.018 | [3] 0.146 | [4] -0.042 | [5] -0.02 | [6] 0.146 | [7] -0.065 | [8] 0.12 | [9] 0.232 | [10] -0.129

SYPL1 (UniProt Q16563)
inactive: [1] -0.037 | [2] 0.039 | [3] -0.058 | [4] -0.03 | [5] -0.042 | [6] -0.048 | [7] 0.035 | [8] 0.03 | [9] 0.022 | [10] -0.033

SUOX (UniProt P51687)
inactive: [1] -0.031 | [2] -0.022 | [3] 0.025 | [4] -0.005 | [5] -0.014 | [6] -0.124 | [7] -0.017 | [8] -0.021 | [9] -0.027 | [10] 0.014

Random excerpt: 2 records from the list, in no set order.
SYPL1 (UniProt Q16563)
inactive: [1] -0.037 | [2] 0.039 | [3] -0.058 | [4] -0.03 | [5] -0.042 | [6] -0.048 | [7] 0.035 | [8] 0.03 | [9] 0.022 | [10] -0.033

TARDBP (UniProt Q13148)
inactive: [1] 0.043 | [2] -0.018 | [3] 0.146 | [4] -0.042 | [5] -0.02 | [6] 0.146 | [7] -0.065 | [8] 0.12 | [9] 0.232 | [10] -0.129

(listing goes on)

SYNCRIP isoform 3 (UniProt O60506)
inactive: [1] -0.042 | [2] -0.062 | [3] 0.151 | [4] 0.01 | [5] 0.227 | [6] 0.061 | [7] -0.1 | [8] 0.112 | [9] 0.198 | [10] -0.128

TAOK1 (UniProt Q7L7X3)
inactive: [1] -0.043 | [2] -0.04 | [3] -0.063 | [4] -0.068 | [5] -0.01 | [6] 0.048 | [7] 0 | [8] -0.003 | [9] -0.038 | [10] -0.194

TAF8 isoform 2 (UniProt Q7Z7C8)
inactive: [1] 0.073 | [2] 0.021 | [3] 0.016 | [4] 0.028 | [5] -0.066 | [6] -0.052 | [7] -0.062 | [8] 0.049 | [9] -0.013 | [10] 0.008
